Data as given in article PMC6733923.
These are yes or no findings as the source states them, for the method shown. Binding seen in cells or lysates may run through a third protein. These calls come from enrichment with a bait or labelling near it, and not all partners need be listed.

The chains behind the UniProt entries cited, without tags or fusion partners.
UniProt Q05397: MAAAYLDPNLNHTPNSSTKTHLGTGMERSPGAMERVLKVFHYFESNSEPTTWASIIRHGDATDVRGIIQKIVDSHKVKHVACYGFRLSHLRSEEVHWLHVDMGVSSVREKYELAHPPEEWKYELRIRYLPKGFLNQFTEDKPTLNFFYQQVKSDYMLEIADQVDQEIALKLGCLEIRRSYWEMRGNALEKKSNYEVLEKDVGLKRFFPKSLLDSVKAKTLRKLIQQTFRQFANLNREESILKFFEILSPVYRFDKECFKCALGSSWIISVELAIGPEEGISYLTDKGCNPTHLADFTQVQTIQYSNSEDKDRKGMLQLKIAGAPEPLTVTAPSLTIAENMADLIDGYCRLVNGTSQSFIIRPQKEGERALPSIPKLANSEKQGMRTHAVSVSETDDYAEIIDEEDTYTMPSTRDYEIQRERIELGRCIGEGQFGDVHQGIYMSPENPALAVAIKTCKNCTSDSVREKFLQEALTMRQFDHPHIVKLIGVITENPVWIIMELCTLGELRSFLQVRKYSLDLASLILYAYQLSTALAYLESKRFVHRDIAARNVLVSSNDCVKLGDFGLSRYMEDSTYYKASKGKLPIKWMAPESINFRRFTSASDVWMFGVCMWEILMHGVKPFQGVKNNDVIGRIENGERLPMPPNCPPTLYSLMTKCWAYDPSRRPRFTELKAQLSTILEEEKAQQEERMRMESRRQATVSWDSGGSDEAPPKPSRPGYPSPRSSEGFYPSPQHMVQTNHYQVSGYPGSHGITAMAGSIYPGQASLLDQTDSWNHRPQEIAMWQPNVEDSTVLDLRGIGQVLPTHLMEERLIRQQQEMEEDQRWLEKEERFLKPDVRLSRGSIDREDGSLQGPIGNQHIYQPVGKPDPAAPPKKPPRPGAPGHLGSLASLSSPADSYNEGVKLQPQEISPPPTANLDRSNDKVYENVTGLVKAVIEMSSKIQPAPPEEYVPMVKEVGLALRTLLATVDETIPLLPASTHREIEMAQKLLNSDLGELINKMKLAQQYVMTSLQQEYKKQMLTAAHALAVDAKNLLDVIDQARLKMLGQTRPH

Target: Focal adhesion kinase 1 (human (endogenous in HCT-116)) (UniProt Q05397)
Assay: affinity purification with mass spectrometry; anti-FAK polyclonal antibody and Protein A/G agarose on 1.5 mg HCT-116 total cell lysate, cells untreated (regular IP) or stimulated with 10 ng/ml EGF for 30 min; rabbit IgG as control; 1D SDS-PAGE, in-gel trypsin digestion, nano-LC-MS/MS; the proteins of Table 2 were found only with EGF …

B1: Unconventional myosin-Id (protein, UniProt O94832 1-1006)
chain: MAEQESLEFGKADFVLMDTVSMPEFMANLRLRFEKGRIYTFIGEVVVSVNPYKLLNIYGRDTIEQYKGRELYERPPHLFAIADAAYKAMKRRSKDTCIVISGESGAGKTEASKYIMQYIAAITNPSQRAEVERVKNMLLKSNCVLEAFGNAKTNRNDNSSRFGKYMDINFDFKGDPIGGHINNYLLEKSRVIVQQPGERSFHSFYQLLQGGSEQMLRSLHLQKSLSSYNYIHVGAQLKSSINDAAEFRVVADAMKVIGFKPEEIQTVYKILAAILHLGNLKFVVDGDTPLIENGKVVSIIAELLSTKTDMVEKALLYRTVATGRDIIDKQHTEQEASYGRDAFAKAIYERLFCWIVTRINDIIEVKNYDTTIHGKNTVIGVLDIYGFEIFDNNSFEQFCINYCNEKLQQLFIQLVLKQEQEEYQREGIPWKHIDYFNNQIIVDLVEQQHKGIIAILDDACMNVGKVTDEMFLEALNSKLGKHAHFSSRKLCASDKILEFDRDFRIRHYAGDVVYSVIGFIDKNKDTLFQDFKRLMYNSSNPVLKNMWPEGKLSITEVTKRPLTAATLFKNSMIALVDNLASKEPYYVRCIKPNDKKSPQIFDDERCRHQVEYLGLLENVRVRRAGFAFRQTYEKFLHRYKMISEFTWPNHDLPSDKEAVKKLIERCGFQDDVAYGKTKIFIRTPRTLFTLEELRAQMLIRIVLFLQKVWRGTLARMRYKRTKAALTIIRYYRRYKVKSYIHEVARRFHGVKTMRDYGKHVKWPSPPKVLRRFEEALQTIFNRWRASQLIKSIPASDLPQVRAKVAAVEMLKGQRADLGLQRAWEGNYLASKPDTPQTSGTFVPVANELKRKDKYMNVLFSCHVRKVNRFSKVEDRAIFVTDRHLYKMDPTKQYKVMKTIPLYNLTGLSVSNGKDQLVVFHTKDNKDLIVCLFSKQPTHESRIGELVGVLVNHFKSEKRHLQVNVTNPVQCSLHGKKCTVSVETRLNQPQPDFTKNRSGFILSVPGN
In the case of B1, the binding is reported as “binds”.
